# From article PMC8096222
# The chains behind the UniProt entries cited, without tags or fusion partners. Where a name states a change or a piece, a line headed by the entry shows the natural chain unless it says otherwise. A line that says so, or that is headed by a name, gives the form on record, which may keep a tag or linker.
# UniProt Q93009: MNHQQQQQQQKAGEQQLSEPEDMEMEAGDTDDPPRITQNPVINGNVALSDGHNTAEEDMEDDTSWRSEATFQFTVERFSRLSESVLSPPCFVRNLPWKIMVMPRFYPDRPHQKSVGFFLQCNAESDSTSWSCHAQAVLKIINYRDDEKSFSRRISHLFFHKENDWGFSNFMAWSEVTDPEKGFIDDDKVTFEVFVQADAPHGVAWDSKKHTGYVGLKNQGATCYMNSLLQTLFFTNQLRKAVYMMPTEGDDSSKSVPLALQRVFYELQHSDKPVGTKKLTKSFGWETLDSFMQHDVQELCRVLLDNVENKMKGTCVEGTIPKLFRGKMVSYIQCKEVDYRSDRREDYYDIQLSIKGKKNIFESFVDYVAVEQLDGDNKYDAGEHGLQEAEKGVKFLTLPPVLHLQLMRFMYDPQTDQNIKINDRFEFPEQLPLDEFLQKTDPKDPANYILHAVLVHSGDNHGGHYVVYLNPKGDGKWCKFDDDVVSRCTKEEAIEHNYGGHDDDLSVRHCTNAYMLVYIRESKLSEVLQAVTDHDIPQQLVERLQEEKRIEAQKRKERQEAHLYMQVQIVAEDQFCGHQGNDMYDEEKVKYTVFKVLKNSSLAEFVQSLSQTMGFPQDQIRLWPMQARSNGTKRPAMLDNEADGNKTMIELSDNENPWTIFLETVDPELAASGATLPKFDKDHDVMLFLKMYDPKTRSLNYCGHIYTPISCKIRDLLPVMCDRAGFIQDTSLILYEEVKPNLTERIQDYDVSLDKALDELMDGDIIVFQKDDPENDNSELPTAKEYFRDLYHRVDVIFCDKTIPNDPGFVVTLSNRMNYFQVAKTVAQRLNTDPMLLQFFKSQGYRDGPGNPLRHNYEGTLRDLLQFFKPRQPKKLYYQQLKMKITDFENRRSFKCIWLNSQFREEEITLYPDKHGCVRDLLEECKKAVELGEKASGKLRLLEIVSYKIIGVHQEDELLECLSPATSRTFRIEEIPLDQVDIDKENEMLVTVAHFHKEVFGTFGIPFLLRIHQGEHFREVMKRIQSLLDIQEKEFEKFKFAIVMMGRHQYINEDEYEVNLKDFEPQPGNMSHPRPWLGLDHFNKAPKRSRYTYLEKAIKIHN
# FLAG-EZH2 (Q15910, form named): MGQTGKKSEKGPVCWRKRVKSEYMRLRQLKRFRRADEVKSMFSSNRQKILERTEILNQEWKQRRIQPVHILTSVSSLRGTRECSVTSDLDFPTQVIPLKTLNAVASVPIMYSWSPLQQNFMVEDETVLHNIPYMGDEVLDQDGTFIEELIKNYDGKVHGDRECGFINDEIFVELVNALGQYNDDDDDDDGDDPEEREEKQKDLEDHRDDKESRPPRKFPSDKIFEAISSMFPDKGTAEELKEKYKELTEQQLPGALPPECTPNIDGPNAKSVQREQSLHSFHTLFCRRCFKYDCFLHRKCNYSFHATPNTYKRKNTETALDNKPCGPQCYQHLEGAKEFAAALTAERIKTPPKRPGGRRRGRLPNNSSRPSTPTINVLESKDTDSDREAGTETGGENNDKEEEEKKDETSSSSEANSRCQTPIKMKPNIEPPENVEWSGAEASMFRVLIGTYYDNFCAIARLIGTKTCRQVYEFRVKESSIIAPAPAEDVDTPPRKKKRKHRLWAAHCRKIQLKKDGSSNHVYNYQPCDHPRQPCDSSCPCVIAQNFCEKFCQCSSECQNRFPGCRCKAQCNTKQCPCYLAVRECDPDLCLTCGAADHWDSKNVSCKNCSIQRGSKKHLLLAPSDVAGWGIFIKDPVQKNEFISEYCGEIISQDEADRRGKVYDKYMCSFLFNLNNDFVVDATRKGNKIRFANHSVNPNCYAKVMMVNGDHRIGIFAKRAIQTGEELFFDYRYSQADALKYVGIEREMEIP
# UniProt Q06587: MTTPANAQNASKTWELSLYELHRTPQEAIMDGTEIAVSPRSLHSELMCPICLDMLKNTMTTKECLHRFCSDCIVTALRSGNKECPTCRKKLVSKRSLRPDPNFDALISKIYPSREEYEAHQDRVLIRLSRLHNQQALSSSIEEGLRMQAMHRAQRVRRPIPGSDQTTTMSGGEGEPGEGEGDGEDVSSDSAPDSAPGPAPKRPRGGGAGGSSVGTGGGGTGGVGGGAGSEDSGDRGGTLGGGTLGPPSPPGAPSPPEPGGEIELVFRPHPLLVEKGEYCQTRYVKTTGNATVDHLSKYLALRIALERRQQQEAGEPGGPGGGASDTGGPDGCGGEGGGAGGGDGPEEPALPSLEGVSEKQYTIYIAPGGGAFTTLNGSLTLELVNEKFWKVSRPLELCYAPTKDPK
# UniProt Q01082: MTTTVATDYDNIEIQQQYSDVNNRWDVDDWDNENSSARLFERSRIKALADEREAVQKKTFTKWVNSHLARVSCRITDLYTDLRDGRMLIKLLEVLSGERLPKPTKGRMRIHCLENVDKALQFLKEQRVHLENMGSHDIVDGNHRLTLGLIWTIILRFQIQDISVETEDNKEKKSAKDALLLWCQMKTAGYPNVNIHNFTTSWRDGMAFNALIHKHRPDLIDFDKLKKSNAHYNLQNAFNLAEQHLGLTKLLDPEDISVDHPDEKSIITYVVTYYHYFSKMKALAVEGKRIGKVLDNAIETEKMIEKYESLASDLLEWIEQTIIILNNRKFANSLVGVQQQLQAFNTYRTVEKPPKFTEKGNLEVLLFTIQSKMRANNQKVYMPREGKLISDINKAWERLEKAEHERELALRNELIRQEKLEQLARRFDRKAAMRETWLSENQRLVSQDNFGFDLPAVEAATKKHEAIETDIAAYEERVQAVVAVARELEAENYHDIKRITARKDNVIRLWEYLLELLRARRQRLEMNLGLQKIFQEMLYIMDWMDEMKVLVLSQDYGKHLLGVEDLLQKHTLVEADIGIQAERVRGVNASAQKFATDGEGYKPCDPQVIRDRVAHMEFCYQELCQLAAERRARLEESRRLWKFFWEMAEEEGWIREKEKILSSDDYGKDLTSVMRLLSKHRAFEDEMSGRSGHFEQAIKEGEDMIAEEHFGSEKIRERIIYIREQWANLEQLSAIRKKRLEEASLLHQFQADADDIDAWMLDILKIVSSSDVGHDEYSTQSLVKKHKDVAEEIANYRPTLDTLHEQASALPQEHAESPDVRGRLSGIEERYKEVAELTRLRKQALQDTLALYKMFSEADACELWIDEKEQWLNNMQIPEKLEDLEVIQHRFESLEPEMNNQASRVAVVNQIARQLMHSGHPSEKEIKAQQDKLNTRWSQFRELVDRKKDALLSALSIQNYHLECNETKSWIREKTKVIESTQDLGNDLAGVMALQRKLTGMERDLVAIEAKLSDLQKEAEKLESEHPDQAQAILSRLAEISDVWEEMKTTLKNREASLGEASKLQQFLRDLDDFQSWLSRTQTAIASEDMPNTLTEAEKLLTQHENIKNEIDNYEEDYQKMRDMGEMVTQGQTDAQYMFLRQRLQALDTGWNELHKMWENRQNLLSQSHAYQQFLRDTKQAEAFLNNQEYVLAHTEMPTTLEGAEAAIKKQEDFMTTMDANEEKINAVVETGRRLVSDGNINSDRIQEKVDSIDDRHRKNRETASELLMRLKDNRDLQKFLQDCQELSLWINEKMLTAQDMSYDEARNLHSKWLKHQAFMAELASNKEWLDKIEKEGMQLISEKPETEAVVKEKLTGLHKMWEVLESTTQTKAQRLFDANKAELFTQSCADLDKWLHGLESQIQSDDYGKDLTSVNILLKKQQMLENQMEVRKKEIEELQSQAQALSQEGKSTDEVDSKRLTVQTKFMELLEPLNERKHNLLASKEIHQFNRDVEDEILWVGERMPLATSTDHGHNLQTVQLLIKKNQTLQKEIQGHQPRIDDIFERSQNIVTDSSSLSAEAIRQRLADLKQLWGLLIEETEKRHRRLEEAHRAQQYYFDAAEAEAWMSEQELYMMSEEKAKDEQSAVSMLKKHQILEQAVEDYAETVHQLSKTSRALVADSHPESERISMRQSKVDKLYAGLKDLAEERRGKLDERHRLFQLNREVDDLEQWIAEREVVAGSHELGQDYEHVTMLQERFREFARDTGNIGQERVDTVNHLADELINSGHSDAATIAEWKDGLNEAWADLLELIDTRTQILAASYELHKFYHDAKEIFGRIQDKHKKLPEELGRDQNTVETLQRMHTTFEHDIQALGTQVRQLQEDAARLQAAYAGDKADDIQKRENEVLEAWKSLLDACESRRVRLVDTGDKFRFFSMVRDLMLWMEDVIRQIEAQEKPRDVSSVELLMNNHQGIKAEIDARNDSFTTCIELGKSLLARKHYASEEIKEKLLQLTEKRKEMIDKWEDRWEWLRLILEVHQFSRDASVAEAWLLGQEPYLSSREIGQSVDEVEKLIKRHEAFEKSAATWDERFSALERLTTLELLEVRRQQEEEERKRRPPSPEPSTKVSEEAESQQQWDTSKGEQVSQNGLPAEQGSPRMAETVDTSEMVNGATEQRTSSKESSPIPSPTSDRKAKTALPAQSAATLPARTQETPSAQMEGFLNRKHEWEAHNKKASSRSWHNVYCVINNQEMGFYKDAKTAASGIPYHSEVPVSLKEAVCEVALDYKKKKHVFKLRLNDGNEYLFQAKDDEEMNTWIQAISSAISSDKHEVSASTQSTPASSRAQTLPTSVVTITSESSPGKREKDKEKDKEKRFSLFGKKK
# No constants are given. Whether binding was seen depends on the method and setting. In cells and extracts the contact can be indirect. These calls come from enrichment with a bait or labelling near it, and not all partners need be listed.
# How the values were obtained:
# FLAG-USP7 = FLAG-USP7 (UniProt Q93009); experiment: affinity purification with mass spectrometry; whole-cell extracts of A375 cells with or without Dox-inducible expression of FLAG-USP7; anti-FLAG purification, silver staining, mass spectrometry
# FLAG-EZH2 = FLAG-EZH2 (UniProt Q15910); experiment: affinity purification with mass spectrometry; whole-cell extracts of A375 cells stably expressing FLAG-EZH2 on anti-FLAG M2 affinity gel; washed with cold PBS plus 0.2% Nonidet P-40; eluted with FLAG peptide; silver-stained bands analysed by LC-MS/MS
Molecule,binding (FLAG-USP7),binding (FLAG-EZH2)
RING1A (from UniProt Q06587 1-406),binds,
"OGT (protein, UniProt O15294 1-1046) MASSVGNVADSTEPTKRMLSFQGLAELAHREYQAGDFEAAERHCMQLWRQEPDNTGVLLLLSSIHFQCRRLDRSAHFSTLAIKQNPLLAEAYSNLGNVYKERGQLQEAIEHYRHALRLKPDFIDGYINLAAALVAAGDMEGAVQAYVSALQYNPDLYCVRSDLGNLLKALGRLEEAKACYLKAIETQPNFAVAWSNLGCVFNAQGEIWLAIHHFEKAVTLDPNFLDAYINLGNVLKEARIFDRAVAAYLRALSLSPNHAVVHGNLACVYYEQGLIDLAIDTYRRAIELQPHFPDAYCNLANALKEKGSVAEAEDCYNTALRLCPTHADSLNNLANIKREQGNIEEAVRLYRKALEVFPEFAAAHSNLASVLQQQGKLQEALMHYKEAIRISPTFADAYSNMGNTLKEMQDVQGALQCYTRAIQINPAFADAHSNLASIHKDSGNIPEAIASYRTALKLKPDFPDAYCNLAHCLQIVCDWTDYDERMKKLVSIVADQLEKNRLPSVHPHHSMLYPLSHGFRKAIAERHGNLCLDKINVLHKPPYEHPKDLKLSDGRLRVGYVSSDFGNHPTSHLMQSIPGMHNPDKFEVFCYALSPDDGTNFRVKVMAEANHFIDLSQIPCNGKAADRIHQDGIHILVNMNGYTKGARNELFALRPAPIQAMWLGYPGTSGALFMDYIITDQETSPAEVAEQYSEKLAYMPHTFFIGDHANMFPHLKKKAVIDFKSNGHIYDNRIVLNGIDLKAFLDSLPDVKIVKMKCPDGGDNADSSNTALNMPVIPMNTIAEAVIEMINRGQIQITINGFSISNGLATTQINNKAATGEEVPRTIIVTTRSQYGLPEDAIVYCNFNQLYKIDPSTLQMWANILKRVPNSVLWLLRFPAVGEPNIQQYAQNMGLPQNRIIFSPVAPKEEHVRRGQLADVCLDTPLCNGHTTGMDVLWAGTPMVTMPGETLASRVAASQLTCLGCLELIAKNRQEYEDIAVKLGTDLEYLKKVRGKVWKQRISSPLFNTKQYTMELERLYLQMWEHYAAGNKPDHMIKPVEVTESA",,binds

# Second part, the molecule after the results:
binding (FLAG-USP7),binding (FLAG-EZH2),Molecule
,binds,ubiquitin-specific protease 7 (USP7) (from UniProt Q93009 1-1102) (enzyme)
,binds,SPTBN1 (from UniProt Q01082 1-2364)
